Experimental data taken from the supplement of paper PMC10663445.
Where a name gives a salt, the structure may show the parent alone. Some of the results follow. Most values come without repeats; read them as rough.

Test system: hsa-miR-132-3p
Assay: miR-132-3p level in NGN2-iNs after compound treatment (TMM-normalised, ComBat batch-corrected) (batch-corrected normalised expression (arbitrary units)); higher = higher miR-132-3p expression
Conditions: 10 µM; 24 h; human iPSC-derived NGN2 neurons (BR43)

| SMILES | miR-132-3p level in NGN2-iNs |
| --- | --- |
| C[C@@H]1C(=O)O[C@H]2C[C@@]34[C@H]5C[C@@H](C(C)(C)C)[C@]36[C@@H](OC(=O)[C@@H]6O)O[C@@]4(C(=O)O5)[C@]21O [Ginkgolide A] | 0.63 |
| NC(=O)c1ncn([C@@H]2O[C@H](CO)[C@@H](O)[C@H]2O)c1N [AICAR (Acadesine)] | 0.718 |
| CC(=O)OCC(=O)[C@@]1(O)CC[C@H]2[C@@H]3CCC4=CC(=O)CC[C@]4(C)[C@H]3C(=O)C[C@@]21C [Cortisone acetate] | -0.847 |
| O=C1c2c(O)cc(O)cc2OC(c2ccc(O)c(O)c2)C1O (centres undefined) [Taxifolin (Dihydroquercetin)] | 0.677 |
| FC(F)(F)c1ccc(/C=C/c2nc(COc3ccc(CCCCn4ccnn4)cc3)co2)cc1 [Mubritinib (TAK 165)] | 2.33 |
| CNC(=O)c1nn(C)c2c1C(C)(C)Cc1cnc(Nc3ccc(N4CCN(C)CC4)cc3)nc1-2 | -1.91 |
| CC(C)(O)CC[C@@H](O)[C@](C)(O)[C@H]1CC[C@@]2(O)C3=CC(=O)[C@@H]4C[C@@H](O)[C@@H](O)C[C@]4(C)[C@H]3CC[C@]12C [20-Hydroxyecdysone] | 1.16 |
| COc1cc2nc(N3CCN(C(=O)C4CCCO4)CC3)nc(N)c2cc1OC (centres undefined) [Terazosin HCl Dihydrate] | 0.617 |
| CCc1c2c(nc3ccc(OC(=O)N4CCC(N5CCCCC5)CC4)cc13)-c1cc3c(c(=O)n1C2)COC(=O)[C@]3(O)CC [Irinotecan HCl Trihydrate] | 1.41 |
| CCc1c2c(nc3ccc(OC(=O)N4CCC(N5CCCCC5)CC4)cc13)-c1cc3c(c(=O)n1C2)COC(=O)[C@]3(O)CC [Irinotecan] | 0.371 |
| OC[C@H]1O[C@@H](OCCc2ccc(O)cc2)[C@H](O)[C@@H](O)[C@@H]1O [Salidroside] | -0.503 |
| C[C@H]1[C@H](NC(=O)/C(=N\OC(C)(C)C(=O)O)c2csc(N)n2)C(=O)N1S(=O)(=O)O [Aztreonam] | 0.249 |
| CCOC(=O)NCCCC(=O)NCCc1ccccc1 | -1.51 |
| C=C1/C(=C\C=C2/CCC[C@]3(C)[C@@H]([C@H](C)CCCC(C)(C)O)CC[C@@H]23)C[C@@H](O)C[C@@H]1O [Calcitriol] | 0.48 |
| Cc1cn([C@@H]2C[C@@H](O)[C@H](CO)O2)c(=O)[nH]c1=O [Telbivudine] | -0.36 |
| O=C(N/N=C/c1ccc([N+](=O)[O-])o1)c1ccc(O)cc1 [Nifuroxazide] | 0.331 |
| Cc1cccc(Nc2cc(Cl)nc(SCC(=O)O)n2)c1C | -0.0507 |
| Cc1cc(NC(=O)c2cccc(NC(=O)/C=C/CN(C)C)c2)ccc1Nc1nccc(-c2cccnc2)n1 | 0.27 |
| OCc1ccc(O[C@@H]2O[C@H](CO)[C@@H](O)[C@H](O)[C@H]2O)cc1 [Gastrodin] | -0.273 |
| O=C(NC(NC(=S)Nc1ccc(F)c([N+](=O)[O-])c1)C(Cl)(Cl)Cl)C(c1ccccc1)c1ccccc1 (centres undefined) | -0.361 |
| Cn1cc(C2=C(c3ccc(Cl)cc3Cl)C(=O)NC2=O)c2ccccc21 | 0.0159 |
| CCc1cc(C(N)=S)ccn1 [Ethionamide] | -1.25 |

Part of the list above, with tabs.
SMILES	miR-132-3p level in NGN2-iNs
CNC(=O)c1nn(C)c2c1C(C)(C)Cc1cnc(Nc3ccc(N4CCN(C)CC4)cc3)nc1-2	-1.91
CC(C)(O)CC[C@@H](O)[C@](C)(O)[C@H]1CC[C@@]2(O)C3=CC(=O)[C@@H]4C[C@@H](O)[C@@H](O)C[C@]4(C)[C@H]3CC[C@]12C [20-Hydroxyecdysone]	1.16
COc1cc2nc(N3CCN(C(=O)C4CCCO4)CC3)nc(N)c2cc1OC (centres undefined) [Terazosin HCl Dihydrate]	0.617
CCc1c2c(nc3ccc(OC(=O)N4CCC(N5CCCCC5)CC4)cc13)-c1cc3c(c(=O)n1C2)COC(=O)[C@]3(O)CC [Irinotecan HCl Trihydrate]	1.41

Later entries.

| SMILES | miR-132-3p level in NGN2-iNs |
| --- | --- |
| CCn1cc(C(=O)O)c(=O)c2cc(F)c(N3CCN(C)CC3)cc21 [Pefloxacin Mesylate Dihydrate] | -0.554 |
| CCn1cc(C(=O)O)c(=O)c2cc(F)c(N3CCN(C)CC3)cc21 [Pefloxacin Mesylate] | 0.37 |
| CCNC(=O)c1noc(-c2cc(Cl)c(O)cc2O)c1-c1ccc(OC)cc1 | -1.04 |
| C[C@@H]1CN(c2c(F)c(N)c3c(=O)c(C(=O)O)cn(C4CC4)c3c2F)C[C@H](C)N1 [Sparfloxacin] | -0.0665 |
| COc1cc(NC(=O)c2ccc(-c3ccc(Cl)cc3)o2)cc(OC)c1 | -1.56 |
| C[C@]12C=CC(=O)C=C1CC[C@@H]1[C@@H]2C(=O)C[C@@]2(C)[C@H]1CC[C@]2(O)C(=O)CO [Prednisone] | 0.982 |
| c1ccc2c(Oc3nc(Nc4ccc(N5CCOCC5)cc4)c4ncn(C5CCCCC5)c4n3)cccc2c1 [Purmorphamine] | -0.375 |
| CC1(C)[C@@H](O[C@H]2O[C@H](C(=O)O)[C@@H](O)[C@H](O)[C@H]2O[C@@H]2O[C@H](C(=O)O)[C@@H](O)[C@H](O)[C@H]2O)CC[C@]2(C)[C@H]3C(=O)C=C4[C@@H]5C[C@@](C)(C(=O)O)CC[C@]5(C)CC[C@@]4(C)[C@]3(C)CC[C@@H]12 [Ammonium Glycyrrhizinate] | 0.888 |
| COc1cc2nccc(Oc3ccc(NC(=O)Nc4ccc(F)cc4F)c(F)c3)c2cc1OC | 0.344 |
| CNC(=C[N+](=O)[O-])NCCSCc1csc(CN(C)C)n1 [Nizatidine] | -0.29 |
| CC(C)CN(C[C@@H](O)[C@H](Cc1ccccc1)NC(=O)O[C@H]1CCOC1)S(=O)(=O)c1ccc(N)cc1 [Amprenavir] | -0.0102 |
| CS(=O)(=O)Nc1ccc([N+](=O)[O-])cc1Oc1ccccc1 [Nimesulide] | 0.188 |
| CO[C@H]1C[C@@H]2CC[C@@H](C)[C@@](O)(O2)C(=O)C(=O)N2CCCC[C@H]2C(=O)O[C@H]([C@H](C)C[C@@H]2CC[C@@H](O)[C@H](OC)C2)CC(=O)[C@H](C)/C=C(\C)[C@@H](O)[C@@H](OC)C(=O)[C@H](C)C[C@H](C)/C=C/C=C/C=C/1C [Rapamycin (Sirolimus)] | 0.21 |
| Cc1ccc(C(=O)NCCCCCC(=O)Nc2ccccc2N)cc1 | -0.515 |
| N#Cc1ccc2[nH]c(O)c(-c3ccc(CN4CCOCC4)cn3)c2c1 | -0.239 |
| COc1cc2ncnc(Nc3ccc(Cl)cc3F)c2cc1OC | -0.385 |
| O=C(O)P(=O)(O)O [Foscarnet Sodium] | -0.222 |
| Cc1[nH]c(/C=C2\C(=O)Nc3ccccc32)c(C)c1CCC(=O)O [Orantinib (SU6668)] | 0.524 |
| CN(CCOc1ccc(NS(C)(=O)=O)cc1)CCc1ccc(NS(C)(=O)=O)cc1 [Dofetilide] | -0.476 |
| CC(C)NCC(O)c1ccc(NS(C)(=O)=O)cc1 (centres undefined) [Sotalol HCl] | -0.358 |
| COc1cc(C=O)ccc1O [Vanillin] | -0.919 |
| CSc1cccc(Nc2ncc3cc(-c4c(Cl)cccc4Cl)c(=O)n(C)c3n2)c1 | 1.31 |
